# These are yes or no findings as the source states them, for the method shown. Binding seen in cells or lysates may run through a third protein. Some binding calls cover weakened binding; strength is not graded here.
# Protein sequences, listed by entry. Tags and fused reporters are not part of them.
# UniProt O15205: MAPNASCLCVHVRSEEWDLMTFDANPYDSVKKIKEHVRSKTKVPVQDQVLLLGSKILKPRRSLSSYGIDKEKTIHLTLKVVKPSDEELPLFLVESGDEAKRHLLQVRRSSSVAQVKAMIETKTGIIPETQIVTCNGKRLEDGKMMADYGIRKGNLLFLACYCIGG
# Tests used:
# [1] = target: T1, Forkhead box M1 (FOXM1), endogenous (human (endogenous in PANC-1 and BxPC-3)) (UniProt Q08050); experiment: co-IP; PANC-1 and BxPC-3 cells transfected with different amounts of HA-FAT10 plasmid; FAT10 or Ub bound to FOXM1 detected by western blot
# T1 sequence: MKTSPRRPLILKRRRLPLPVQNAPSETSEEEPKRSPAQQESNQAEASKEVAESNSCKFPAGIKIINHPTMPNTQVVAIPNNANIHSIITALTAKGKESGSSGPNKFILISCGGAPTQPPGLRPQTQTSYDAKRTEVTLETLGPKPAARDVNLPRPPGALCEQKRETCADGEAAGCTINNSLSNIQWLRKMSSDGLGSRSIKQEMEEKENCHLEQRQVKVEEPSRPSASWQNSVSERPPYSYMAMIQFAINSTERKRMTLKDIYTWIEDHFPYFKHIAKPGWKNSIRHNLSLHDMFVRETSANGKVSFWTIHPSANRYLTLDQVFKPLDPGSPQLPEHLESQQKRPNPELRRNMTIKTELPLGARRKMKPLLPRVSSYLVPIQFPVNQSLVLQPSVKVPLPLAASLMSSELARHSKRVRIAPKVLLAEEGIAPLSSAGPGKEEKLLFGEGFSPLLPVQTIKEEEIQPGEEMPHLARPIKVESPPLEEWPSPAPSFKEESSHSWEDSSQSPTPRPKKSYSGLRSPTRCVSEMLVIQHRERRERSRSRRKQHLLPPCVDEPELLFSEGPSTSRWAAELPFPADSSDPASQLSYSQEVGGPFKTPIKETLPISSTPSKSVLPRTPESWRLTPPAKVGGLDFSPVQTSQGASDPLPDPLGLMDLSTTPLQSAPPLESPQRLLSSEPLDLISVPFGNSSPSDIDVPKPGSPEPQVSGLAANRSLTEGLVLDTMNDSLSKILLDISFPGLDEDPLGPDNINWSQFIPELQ
# [2] = target: T1, Forkhead box M1 (FOXM1), endogenous (human (endogenous in PANC-1 and BxPC-3)); experiment: co-IP; endogenous proteins in RIPA lysates of PANC-1 and BxPC-3 cells, protein A/G agarose, 4 °C, western blot; also after MG132 (10 μM) with shFAT10 or HA-FAT10 transfected
binding [1],binding [2],Substance
binds,–,HA-FAT10 (from UniProt O15205 1-165)
–,binds,"Human leukocyte antigen F-associated transcript10 (FAT10), endogenous (from UniProt O15205 1-165)"

# Source: paper PMC9132907
